Our source for the binding values is publication doi:10.1101/2022.09.09.507380.

The chains behind the UniProt entries cited, without tags or fusion partners.
UniProt P36873: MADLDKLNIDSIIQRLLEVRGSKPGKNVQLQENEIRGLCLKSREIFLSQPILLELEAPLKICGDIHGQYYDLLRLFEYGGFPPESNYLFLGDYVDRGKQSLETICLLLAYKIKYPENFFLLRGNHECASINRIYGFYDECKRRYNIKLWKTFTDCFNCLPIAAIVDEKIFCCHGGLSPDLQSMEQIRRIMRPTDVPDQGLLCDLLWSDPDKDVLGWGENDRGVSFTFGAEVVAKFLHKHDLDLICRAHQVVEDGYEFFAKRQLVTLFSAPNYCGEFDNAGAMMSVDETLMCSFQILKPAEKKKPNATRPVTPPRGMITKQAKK
UniProt P62140: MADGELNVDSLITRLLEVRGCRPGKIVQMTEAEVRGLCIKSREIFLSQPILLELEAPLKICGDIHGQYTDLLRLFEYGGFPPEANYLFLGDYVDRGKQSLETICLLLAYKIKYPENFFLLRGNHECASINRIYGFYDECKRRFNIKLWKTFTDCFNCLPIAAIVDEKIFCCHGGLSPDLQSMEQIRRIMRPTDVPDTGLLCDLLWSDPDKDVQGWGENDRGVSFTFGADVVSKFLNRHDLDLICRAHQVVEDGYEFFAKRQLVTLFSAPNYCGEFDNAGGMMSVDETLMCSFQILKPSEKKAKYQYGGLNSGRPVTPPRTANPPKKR

The target in test [1] is GFP-hPP1γ (pEGFP expression plasmid, stable cell lines) (human) (UniProt P36873). The test is described as follows: affinity purification with mass spectrometry.
Test [2] addresses hPP1β-GFP (pEGFP expression plasmid, stable cell lines) (human) (UniProt P62140). The test is described as follows: affinity purification with mass spectrometry.

No constants are given. Whether binding was seen depends on the method and setting. Binding seen in cells or lysates may run through a third protein. These calls come from enrichment with a bait or labelling near it, and not all partners need be listed. A no says only that the protein was not detected with the bait.

B1: RASSF7 (endogenous) (protein, UniProt Q02833 1-373)
chain: MLLGLAAMELKVWVDGIQRVVCGVSEQTTCQEVVIALAQAIGQTGRFVLVQRLREKERQLLPQECPVGAQATCGQFASDVQFVLRRTGPSLAGRPSSDSCPPPERCLIRASLPVKPRAALGCEPRKTLTPEPAPSLSRPGPAAPVTPTPGCCTDLRGLELRVQRNAEELGHEAFWEQELRREQAREREGQARLQALSAATAEHAARLQALDAQARALEAELQLAAEAPGPPSPMASATERLHQDLAVQERQSAEVQGSLALVSRALEAAERALQAQAQELEELNRELRQCNLQQFIQQTGAALPPPPRPDRGPPGTQGPLPPAREESLLGAPSESHAGAQPRPRGGPHDAELLEVAAAPAPEWCPLAAQPQAL
For the molecule B1, the binding result in test [1] and in test [2] was “no binding” throughout.

B2: RASSF8 (endogenous) (protein, UniProt Q8NHQ8 1-419)
chain: MELKVWVDGVQRIVCGVTEVTTCQEVVIALAQAIGRTGRYTLIEKWRDTERHLAPHENPIISLNKWGQYASDVQLILRRTGPSLSERPTSDSVARIPERTLYRQSLPPLAKLRPQIDKSIKRREPKRKSLTFTGGAKGLMDIFGKGKETEFKQKVLNNCKTTADELKKLIRLQTEKLQSIEKQLESNEIEIRFWEQKYNSNLEEEIVRLEQKIKRNDVEIEEEEFWENELQIEQENEKQLKDQLQEIRQKITECENKLKDYLAQIRTMESGLEAEKLQREVQEAQVNEEEVKGKIGKVKGEIDIQGQQSLRLENGIKAVERSLGQATKRLQDKEQELEQLTKELRQVNLQQFIQQTGTKVTVLPAEPIEIEASHADIEREAPFQSGSLKRPGSSRQLPSNLRILQNPISSGFNPEGIYV
Turning to B2, the binding result in test [1] and in test [2] was “no binding” throughout.
